Source: US10588608B2, “Sampling systems and related materials and methods” (Progenity Inc., priority 2016, dated 2020)

Assays:
[1] = test system: IgA; test: ELISA assay compatibility of preservatives: IgA detection; design: species or system human; conditions: in SDJ; FIGS. 46, 48
[2] = test system: IgM; test: ELISA assay compatibility of preservatives: IgM detection; design: species or system human; conditions: in SDJ; FIGS. 47, 49

SMILES: Cc1ccc(S(=O)(=O)N[C@@H](Cc2ccccc2)C(=O)CCl)cc1 [TPCK, N-p-Tosyl-L-phenylalanine chloromethyl ketone]
- effect on IgA detection by ELISA [1]: no impact
- effect on IgM detection by ELISA [2]: no impact
